The target of the assay is Gly-Gly-Gly-BLS: lumazine synthase from Brucella abortus with an N-terminal Gly-tag after TEV digestion (Brucella abortus) (UniProt Q2YKV1). Nature of the assay: SEC; both purified. Background: SEC sorts molecules by how far they enter the pores of the column.

By UniProt entry, the sequences of proteins in these tests, tags left out.
UniProt Q2YKV1: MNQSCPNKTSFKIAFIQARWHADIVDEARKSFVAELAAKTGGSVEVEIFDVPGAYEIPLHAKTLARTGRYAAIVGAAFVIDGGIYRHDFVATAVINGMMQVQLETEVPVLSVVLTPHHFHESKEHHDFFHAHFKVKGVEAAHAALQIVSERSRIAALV

No constants are given. Whether binding was seen depends on the method and setting. Some results given as binding are weak or reduced against the parent protein; the word gives no strength.

Regarding “Gly-Gly-Gly-BLS: lumazine synthase from Brucella abortus with an N-terminal Gly-tag after TEV digestion (from UniProt Q2YKV1 1-158) (enzyme)”, the binding entry is recorded as “binds”.
